From paper PMC7809621
These are yes or no findings as the source states them, for the method shown. Binding seen in cells or lysates may run through a third protein. Some entries that bind do so weakly or less than the wild type. For some of these results: Tags and fused reporters may be left off the sequences shown.

T1: MAKR2-mCitrine (Arabidopsis thaliana) (UniProt Q9SH58)
T1 sequence: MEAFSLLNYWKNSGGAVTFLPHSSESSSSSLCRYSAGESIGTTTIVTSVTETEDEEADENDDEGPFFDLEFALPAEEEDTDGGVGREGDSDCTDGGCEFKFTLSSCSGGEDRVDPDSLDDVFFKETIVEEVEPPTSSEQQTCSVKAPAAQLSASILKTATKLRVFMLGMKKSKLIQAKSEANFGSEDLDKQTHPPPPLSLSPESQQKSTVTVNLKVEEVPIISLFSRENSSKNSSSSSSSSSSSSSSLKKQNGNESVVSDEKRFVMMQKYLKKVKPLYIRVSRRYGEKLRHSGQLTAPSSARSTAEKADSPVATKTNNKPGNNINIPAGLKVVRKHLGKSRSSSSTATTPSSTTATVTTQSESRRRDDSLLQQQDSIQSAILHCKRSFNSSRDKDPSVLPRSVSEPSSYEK

T2: Flag-Halo-MAKR2 (MEMBRANE ASSOCIATED KINASE REGULATOR2) (Arabidopsis thaliana) (UniProt Q9SH58)
T2 sequence: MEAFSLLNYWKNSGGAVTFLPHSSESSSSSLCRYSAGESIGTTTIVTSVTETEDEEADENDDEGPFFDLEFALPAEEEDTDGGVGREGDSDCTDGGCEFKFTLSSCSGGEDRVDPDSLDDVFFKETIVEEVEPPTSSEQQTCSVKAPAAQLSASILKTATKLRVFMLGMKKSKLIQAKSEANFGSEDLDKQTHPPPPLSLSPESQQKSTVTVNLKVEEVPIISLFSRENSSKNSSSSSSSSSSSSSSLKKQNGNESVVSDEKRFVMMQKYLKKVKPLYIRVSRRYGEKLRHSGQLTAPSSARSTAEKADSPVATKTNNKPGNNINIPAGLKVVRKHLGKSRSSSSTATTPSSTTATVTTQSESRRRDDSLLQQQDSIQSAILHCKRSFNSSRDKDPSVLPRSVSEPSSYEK


What was measured:
[1] = target: T1, MAKR2-mCitrine (Arabidopsis thaliana); assay: co-IP; Arabidopsis PSB-L protoplasts co-transfected; treated with DMSO or 1 μM IAA for 1 h; MAKR2-mCitrine precipitated with GFP-Trap Magnetic Agarose (1 h, 4°C); blots with anti-GFP and anti-HA
[2] = target: T2, Flag-Halo-MAKR2 (MEMBRANE ASSOCIATED KINASE REGULATOR2) (Arabidopsis thaliana); assay: pull-down; Halo-tag pull-down; both plasmids expressed together in the wheat germ cell-free reaction (25°C, 2 h); Halo-tagged bait held on Halo-tag magnetic beads (room temperature, 30 min); washes in PBS + 0,05% Tween20; HA-tagged prey seen by anti-HA blot

| Binder | binding [1] | binding [2] |
| --- | --- | --- |
| HSL1^cyt-HA (cytosolic domain of HAESA-LIKE1) (domain or fragment, UniProt Q9SGP2 640-996) YFKYRTFKKARAMERSKWTLMSFHKLGFSEHEILESLDEDNVIGAGASGKVYKVVLTNGETVAVKRLWTGSVKETGDCDPEKGYKPGVQDEAFEAEVETLGKIRHKNIVKLWCCCSTRDCKLLVYEYMPNGSLGDLLHSSKGGMLGWQTRFKIILDAAEGLSYLHHDSVPPIVHRDIKSNNILIDGDYGARVADFGVAKAVDLTGKAPKSMSVIAGSCGYIAPEYAYTLRVNEKSDIYSFGVVILEIVTRKRPVDPELGEKDLVKWVCSTLDQKGIEHVIDPKLDSCFKEEISKILNVGLLCTSPLPINRPSMRRVVKMLQEIGGGDEDSLHKIRDDKDGKLTPYYNEDTSDQGSIA |  | no binding |
| TMK1^cyt-HA (isolated cytosolic domain of TRANSMEMBRANE KINASE1) (domain or fragment, UniProt P43298 504-942) CWYKKRQKRFSGSESSNAVVVHPRHSGSDNESVKITVAGSSVSVGGISDTYTLPGTSEVGDNIQMVEAGNMLISIQVLRSVTNNFSSDNILGSGGFGVVYKGELHDGTKIAVKRMENGVIAGKGFAEFKSEIAVLTKVRHRHLVTLLGYCLDGNEKLLVYEYMPQGTLSRHLFEWSEEGLKPLLWKQRLTLALDVARGVEYLHGLAHQSFIHRDLKPSNILLGDDMRAKVADFGLVRLAPEGKGSIETRIAGTFGYLAPEYAVTGRVTTKVDVYSFGVILMELITGRKSLDESQPEESIHLVSWFKRMYINKEASFKKAIDTTIDLDEETLASVHTVAELAGHCCAREPYQRPDMGHAVNILSSLVELWKPSDQNPEDIYGIDLDMSLPQALKKWQAYEGRSDLESSTSSLLPSLDNTQMSIPTRPYGFAESFTSVDGR |  | binds |

Second part, led by results:

| binding [1] | Binder | binding [2] |
| --- | --- | --- |
| binds | TMK1-3HA (full-length TRANSMEMBRANE KINASE1) (receptor, UniProt P43298 24-942) DSDGDLSAMLSLKKSLNPPSSFGWSDPDPCKWTHIVCTGTKRVTRIQIGHSGLQGTLSPDLRNLSELERLELQWNNISGPVPSLSGLASLQVLMLSNNNFDSIPSDVFQGLTSLQSVEIDNNPFKSWEIPESLRNASALQNFSANSANVSGSLPGFLGPDEFPGLSILHLAFNNLEGELPMSLAGSQVQSLWLNGQKLTGDITVLQNMTGLKEVWLHSNKFSGPLPDFSGLKELESLSLRDNSFTGPVPASLLSLESLKVVNLTNNHLQGPVPVFKSSVSVDLDKDSNSFCLSSPGECDPRVKSLLLIASSFDYPPRLAESWKGNDPCTNWIGIACSNGNITVISLEKMELTGTISPEFGAIKSLQRIILGINNLTGMIPQELTTLPNLKTLDVSSNKLFGKVPGFRSNVVVNTNGNPDIGKDKSSLSSPGSSSPSGGSGSGINGDKDRRGMKSSTFIGIIVGSVLGGLLSIFLIGLLVFCWYKKRQKRFSGSESSNAVVVHPRHSGSDNESVKITVAGSSVSVGGISDTYTLPGTSEVGDNIQMVEAGNMLISIQVLRSVTNNFSSDNILGSGGFGVVYKGELHDGTKIAVKRMENGVIAGKGFAEFKSEIAVLTKVRHRHLVTLLGYCLDGNEKLLVYEYMPQGTLSRHLFEWSEEGLKPLLWKQRLTLALDVARGVEYLHGLAHQSFIHRDLKPSNILLGDDMRAKVADFGLVRLAPEGKGSIETRIAGTFGYLAPEYAVTGRVTTKVDVYSFGVILMELITGRKSLDESQPEESIHLVSWFKRMYINKEASFKKAIDTTIDLDEETLASVHTVAELAGHCCAREPYQRPDMGHAVNILSSLVELWKPSDQNPEDIYGIDLDMSLPQALKKWQAYEGRSDLESSTSSLLPSLDNTQMSIPTRPYGFAESFTSVDGR |  |
| no binding | TMK1^Δkinase-3HA (kinase-deleted TMK1, amino acid 1-587) (domain or fragment, UniProt P43298 24-587) DSDGDLSAMLSLKKSLNPPSSFGWSDPDPCKWTHIVCTGTKRVTRIQIGHSGLQGTLSPDLRNLSELERLELQWNNISGPVPSLSGLASLQVLMLSNNNFDSIPSDVFQGLTSLQSVEIDNNPFKSWEIPESLRNASALQNFSANSANVSGSLPGFLGPDEFPGLSILHLAFNNLEGELPMSLAGSQVQSLWLNGQKLTGDITVLQNMTGLKEVWLHSNKFSGPLPDFSGLKELESLSLRDNSFTGPVPASLLSLESLKVVNLTNNHLQGPVPVFKSSVSVDLDKDSNSFCLSSPGECDPRVKSLLLIASSFDYPPRLAESWKGNDPCTNWIGIACSNGNITVISLEKMELTGTISPEFGAIKSLQRIILGINNLTGMIPQELTTLPNLKTLDVSSNKLFGKVPGFRSNVVVNTNGNPDIGKDKSSLSSPGSSSPSGGSGSGINGDKDRRGMKSSTFIGIIVGSVLGGLLSIFLIGLLVFCWYKKRQKRFSGSESSNAVVVHPRHSGSDNESVKITVAGSSVSVGGISDTYTLPGTSEVGDNIQMVEAGNMLISIQVLRSVTNN |  |
